For two molecules, binding results are on record in patent publication US20250353924A1 (CITY OF HOPE, published 2025).

No constants are given. Whether binding was seen depends on the method and setting. Some results given as binding are weak or reduced against the parent protein; the word gives no strength.

The target in assay [1] is T1, CD84 (soluble protein used for the 8A5-CD84 crystal structure, FPLC co-elution and SPR) (human) (UniProt Q9UIB8).
T1 sequence (looked up): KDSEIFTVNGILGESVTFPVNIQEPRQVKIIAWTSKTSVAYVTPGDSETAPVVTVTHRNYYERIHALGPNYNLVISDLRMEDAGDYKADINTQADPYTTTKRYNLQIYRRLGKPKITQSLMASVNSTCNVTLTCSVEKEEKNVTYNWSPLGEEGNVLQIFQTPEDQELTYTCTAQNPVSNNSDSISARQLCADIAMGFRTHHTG
Description: SPR, anti-HIS antibodies immobilized, Fabs injected at 300, 100, 30 and 10 nM at 25° C. On the technique in general: SPR reads the build-up and loss of mass on a sensor chip optically.

The target in assay [2] is T1, CD84 (soluble protein used for the 8A5-CD84 crystal structure, FPLC co-elution and SPR) (human). Description: FPLC size exclusion co-elution of Fab and CD84. For orientation: Size exclusion chromatography separates by hydrodynamic size, large species first.

B1: chimeric anti-CD84 Fab of clone 5C6 (Fab, V domains shown)
VH: QVHLQQSGAELVRPGTSVKISCKASGYTFTNYWLGWVKQRPGHGLEWIGDIFPGGGYINYHEKFKGKATLTADTSSSTAYMQLSSLTSEDSAVYFCGYGNIAMDYWGQGTSVTVSS
VL: QIILTQTPAIMSASPGEKVTMTCSASSSVSYVHWYQQKSGTSPKRWIYDTSKLASGVPARFSGSGSGTSYSLTISTMEAEDAATYYCQQWNNSPRTFGGGTKLEIKR
Consider B1, for which the binding result in assay [1] and in assay [2] was “binds” in each case.

B2: chimeric anti-CD84 Fab of clone 7D2 (Fab, V domains shown)
VH: QVHLQQSGAELVRPGTSVKISCKASGYTFTNYWLGWVKQRPGHGLEWIGDIFPGGGYINYHEKFKGKATLTADTSSSTAYMQLSSLTSEDSAVYFCAYGNVAMDYWGQGTSVTVSS
VL: QIILTQTPAIMSASPGEKVTVTCSASSSVSYVHWYQQKSGTSPKRWIYDTSKLASGVPARFSGSGSGTSYSLTISTMEAEDAATYYCQQWNNSPRTFGGGTKLEIKR
In the case of B2, the binding result in assay [1] and in assay [2] was “binds” in each case.
